Measurements as given in paper PMC10866072, “Design, synthesis, molecular modelling and biological evaluation of novel 6-amino-5-cyano-2-thiopyrimidine derivatives as potent anticancer agents against leukemia and apoptotic inducers” (Journal of Enzyme Inhibition and Medicinal Chemistry, 2024).

What follows are molecules tested on full NCI 60 cell lines panel. Details: one dose 10^-5 M, 48 h.
For “3-Amino-4-[4-(dimethylamino)phenyl]-1H-pyrazolo[3,4-d]pyrimidine-6-thiol [Compound 3a]”, the “Delta (one dose mean graph)” value was 45.09 and the “Range (one dose mean graph)” value was 104.00.
In the case of “3-Amino-4–(2,4-dichlorophenyl)-1H-pyrazolo[3,4-d] pyrimidine-6-thiol [Compound 3c]”, the “Delta (one dose mean graph)” value is reported as 27.97 and the “Range (one dose mean graph)” value is reported as 70.55.
With “3-Amino-4–(4-chlorophenyl)-1H-pyrazolo[3,4-d] pyrimidine-6-thiol [Compound 3b]” the “Delta (one dose mean graph)” value was 18.19 and the “Range (one dose mean graph)” value was 32.84.
“4-Amino-6-[4-(dimethylamino)phenyl]-2-mercaptopyrimidine-5-carboximidohydrazide [Compound 2a]” was tested, and the “Delta (one dose mean graph)” value was 35.84 and the “Range (one dose mean graph)” value was 65.10.
“4-Amino-6–(2,4-dichlorophenyl)-2-mercaptopyrimidine-5-carboximidohydrazide [Compound 2c]” was tested, and the “Delta (one dose mean graph)” value was 32.80 and the “Range (one dose mean graph)” value was 53.94.
In the case of “4-Amino-6–(4-chlorophenyl)-2-mercaptopyrimidine-5-carboximidohydrazide [Compound 2b]”, the “Delta (one dose mean graph)” value is reported as 24.07 and the “Range (one dose mean graph)” value is reported as 47.54.
In the case of `CN(C)c1ccc(-c2nc(S)nc(N)c2C#N)cc1` [Compound 1a], the “Delta (one dose mean graph)” value is reported as 36.37 and the “Range (one dose mean graph)” value is reported as 70.76.
With `N#Cc1c(N)nc(S)nc1-c1ccc(Cl)cc1` [Compound 1b] the “Delta (one dose mean graph)” value was 33.47 and the “Range (one dose mean graph)” value was 84.30.
With `N#Cc1c(N)nc(S)nc1-c1ccc(Cl)cc1Cl` [Compound 1c, 4-Amino-6–(2,4-dichlorophenyl)-2-mercaptopyrimidine-5-carbonitrile] the “Delta (one dose mean graph)” value was 102.55 and the “Range (one dose mean graph)” value was 185.78.
For `CN(C)c1ccc(-c2nc(S)nc(N)c2C(=N)NN=Cc2ccccc2)cc1` [Compound 4a, 4-Amino-6-[4-(dimethylamino)phenyl]-2-mercapto-N'-[phenylmethylene] pyrimidine-5-carboximidohydrazide], the “Delta (one dose mean graph)” value was 28.92 and the “Range (one dose mean graph)” value was 64.70.
`CN(C)c1ccc(-c2nc(S)nc(N)c2C(=N)NN=Cc2ccc(Cl)cc2)cc1` [Compound 4b, 4-amino-N'-[(4-chlorophenyl)methylene]-6-[4-(dimethylamino)phenyl]-2-mercapto pyrimidine-5-carboximidohydrazide] was tested, and the “Delta (one dose mean graph)” value was 32.83 and the “Range (one dose mean graph)” value was 71.97.
In the case of `CN(C)c1ccc(-c2cc([N+](=O)[O-])ccc2C=NNC(=N)c2cnc(S)nc2N)cc1` [Compound 4c, 4-amino-N'-[6-[4-(dimethylamino)phenyl]-(4-nitrophenyl)methylene]-2-mercapto pyrimidine-5-carboximidohydrazide], the “Delta (one dose mean graph)” value is reported as 27.53 and the “Range (one dose mean graph)” value is reported as 51.30.
In the case of `COc1ccc(/C=N\NC(=N)c2c(N)nc(S)nc2-c2ccc(N(C)C)cc2)cc1` [Compound 4d, 4-amino-N'-[(1Z)-(4-methoxyphenyl)methylene]-6-[4-(dimethylamino)phenyl]-2-mercapto pyrimidine-5-carboximidohydrazide], the “Delta (one dose mean graph)” value is reported as 29.35 and the “Range (one dose mean graph)” value is reported as 47.40.
In the case of `CN(C)c1ccc(-c2nc(S)nc(N)c2C(=N)NN=Cc2ccc(Br)cc2)cc1` [Compound 4e, 4-amino-N'-[(4-bromophenyl)methylene]-6-[4-(dimethylamino)phenyl]-2-mercapto pyrimidine-5-carboximidohydrazide], the “Delta (one dose mean graph)” value is reported as 33.69 and the “Range (one dose mean graph)” value is reported as 91.05.
In the case of `CN(C)c1ccc(-c2nc(S)nc(N)c2C(=N)NN=Cc2ccc(Cl)cc2Cl)cc1` [Compound 4f, 4-amino-N'-[(2,4-dichlorophenyl)methylene]-6-[4-(dimethylamino)phenyl]-2-mercapto pyrimidine-5-carboximidohydrazide], the “Delta (one dose mean graph)” value is reported as 31.12 and the “Range (one dose mean graph)” value is reported as 98.59.
In the case of `N=C(NN=Cc1ccccc1)c1c(N)nc(S)nc1-c1ccc(Cl)cc1` [Compound 4g, 4-amino-6–(4-chlorophenyl)-2-mercapto-N'-[phenylmethylene]pyrimidine-5-carboximido hydrazide], the “Delta (one dose mean graph)” value is reported as 85.08 and the “Range (one dose mean graph)” value is reported as 138.92.
For `N=C(NN=Cc1ccc(Cl)cc1)c1c(N)nc(S)nc1-c1ccc(Cl)cc1` [Compound 4h, 4-amino-6–(4-chlorophenyl)-N'-[(4-chlorophenyl)methylene]-2-mercapto pyrimidine-5-carboximidohydrazide], the “Delta (one dose mean graph)” value was 24.76 and the “Range (one dose mean graph)” value was 55.38.
With `N=C(NN=Cc1ccc([N+](=O)[O-])cc1)c1c(N)nc(S)nc1-c1ccc(Cl)cc1` [Compound 4i, 4-amino-6–(4-chlorophenyl)-2-mercapto-N'-[(4-nitrophenyl)methylene] pyrimidine-5-carboximidohydrazide] the “Delta (one dose mean graph)” value was 12.79 and the “Range (one dose mean graph)” value was 61.10.
With `COc1ccc(C=NNC(=N)c2c(N)nc(S)nc2-c2ccc(Cl)cc2)cc1` [Compound 4j, 4-amino-6–(4-chlorophenyl)-2-mercapto-N'-[(4-methoxyphenyl)methylene] pyrimidine-5-carboximidohydrazide] the “Delta (one dose mean graph)” value was 25.37 and the “Range (one dose mean graph)” value was 65.19.
With `N=C(NN=Cc1ccc(Br)cc1)c1c(N)nc(S)nc1-c1ccc(Cl)cc1` [Compound 4k, 4-amino-N'-[(4-bromophenyl)methylene]-6–(4-chlorophenyl)-2-mercapto pyrimidine-5-carboximidohydrazide] the “Delta (one dose mean graph)” value was 78.03 and the “Range (one dose mean graph)” value was 120.67.
For `N=C(NN=Cc1ccc(Cl)cc1Cl)c1c(N)nc(S)nc1-c1ccc(Cl)cc1` [Compound 4l, 4-amino-6–(4-chlorophenyl)-N'-[(2,4-dichlorophenyl)methylene]-2-mercapto pyrimidine-5-carboximidohydrazide], the “Delta (one dose mean graph)” value was 61.56 and the “Range (one dose mean graph)” value was 94.18.
`N=C(NN=Cc1ccccc1)c1c(N)nc(S)nc1-c1ccc(Cl)cc1Cl` [Compound 4m, 4-Amino-6–(2,4-dichlorophenyl)-2-mercapto-N'-[phenylmethylene]pyrimidine-5-carboximidohydrazide] was tested, and the “Delta (one dose mean graph)” value was 31.90 and the “Range (one dose mean graph)” value was 70.82.
In the case of `N=C(NN=Cc1ccc(Cl)cc1)c1c(N)nc(S)nc1-c1ccc(Cl)cc1Cl` [Compound 4n, 4-Amino-N'-[(4-chlorophenyl)methylene]-6–(2,4-dichlorophenyl)-2-mercapto pyrimidine-5-carboximidohydrazide], the “Delta (one dose mean graph)” value is reported as 32.98 and the “Range (one dose mean graph)” value is reported as 78.90.
`N=C(NN=Cc1ccc([N+](=O)[O-])cc1)c1c(N)nc(S)nc1-c1ccc(Cl)cc1Cl` [Compound 4o, 4-amino-6–(2,4-dichlorophenyl)-2-mercapto-N'-[(4-nitrophenyl)methylene] pyrimidine-5-carboximidohydrazide] was tested, and the “Delta (one dose mean graph)” value was 91.45 and the “Range (one dose mean graph)” value was 157.63.
For `COc1ccc(C=NNC(=N)c2c(N)nc(S)nc2-c2ccc(Cl)cc2Cl)cc1` [Compound 4p, 4-amino-6–(2,4-dichlorophenyl)-2-mercapto-N'-[(4-methoxyphenyl)methylene] pyrimidine-5-carboximidohydrazide], the “Delta (one dose mean graph)” value was 29.12 and the “Range (one dose mean graph)” value was 67.96.
With `N=C(NN=Cc1ccc(Br)cc1)c1c(N)nc(S)nc1-c1ccc(Cl)cc1Cl` [Compound 4q, 4-amino-N'-[(4-bromophenyl)methylene]-6–(2,4-dichlorophenyl)-2-mercapto pyrimidine-5-carboximidohydrazide] the “Delta (one dose mean graph)” value was 17.63 and the “Range (one dose mean graph)” value was 61.45.
`N=C(NN=Cc1ccc(Cl)cc1Cl)c1c(N)nc(S)nc1-c1ccc(Cl)cc1Cl` [Compound 4r, 4-amino-6–(2,4-dichlorophenyl)-N'-[(2,4-dichlorophenyl)methylene]-2-mercapto pyrimidine-5-carboximidohydrazide] was tested, and the “Delta (one dose mean graph)” value was 25.83 and the “Range (one dose mean graph)” value was 41.01.
With `CN(C)c1ccc(-c2nc(S)nc(N)c2-c2ncn[nH]2)cc1` [Compound 5a, 4-Aamino-6-[4-(dimethylamino)phenyl]-5-(1H-1,2,4-triazol-5-yl)pyrimidine-2-thiol] the “Delta (one dose mean graph)” value was 22.98 and the “Range (one dose mean graph)” value was 46.07.
For `Nc1nc(S)nc(-c2ccc(Cl)cc2)c1-c1ncn[nH]1` [Compound 5b, 4-Amino-6–(4-chlorophenyl)-5-(1H-1,2,4-triazol-5-yl)pyrimidine-2-thiol], the “Delta (one dose mean graph)” value was 23.81 and the “Range (one dose mean graph)” value was 40.25.
`Nc1nc(S)nc(-c2ccc(Cl)cc2Cl)c1-c1ncn[nH]1` [Compound 5c, 4-Amino-6–(2,4-dichlorophenyl)-5-(1H-1,2,4-triazol-5-yl)pyrimidine-2-thiol] was tested, and the “Delta (one dose mean graph)” value was 50.41 and the “Range (one dose mean graph)” value was 70.44.
